Test results taken from PubChem BioAssay AID720504 (National Center for Advancing Translational Sciences (NCATS), 2013).
“And” between values parts separate entries of the source, which are not always exact repeats. Equal entries are not always repeated. In all, about 360,000 compounds went through this assay and about 10,000 (2.8%) were called active. The inconclusive results got no clear call from the source; some entries with a clear call stand among them for comparison. Calls come from the whole dose curve; as a rule, active = well fitted inhibition curve with a large enough effect; inconclusive = small, poorly fitted or top-dose-only effect; inactive = flat fitted curve, though single readings scatter. Where the call is inconclusive, the potency comes from a doubtful curve fit.

By UniProt entry, the sequences of proteins in these tests, tags left out.
UniProt P53350, whole entry, looked up: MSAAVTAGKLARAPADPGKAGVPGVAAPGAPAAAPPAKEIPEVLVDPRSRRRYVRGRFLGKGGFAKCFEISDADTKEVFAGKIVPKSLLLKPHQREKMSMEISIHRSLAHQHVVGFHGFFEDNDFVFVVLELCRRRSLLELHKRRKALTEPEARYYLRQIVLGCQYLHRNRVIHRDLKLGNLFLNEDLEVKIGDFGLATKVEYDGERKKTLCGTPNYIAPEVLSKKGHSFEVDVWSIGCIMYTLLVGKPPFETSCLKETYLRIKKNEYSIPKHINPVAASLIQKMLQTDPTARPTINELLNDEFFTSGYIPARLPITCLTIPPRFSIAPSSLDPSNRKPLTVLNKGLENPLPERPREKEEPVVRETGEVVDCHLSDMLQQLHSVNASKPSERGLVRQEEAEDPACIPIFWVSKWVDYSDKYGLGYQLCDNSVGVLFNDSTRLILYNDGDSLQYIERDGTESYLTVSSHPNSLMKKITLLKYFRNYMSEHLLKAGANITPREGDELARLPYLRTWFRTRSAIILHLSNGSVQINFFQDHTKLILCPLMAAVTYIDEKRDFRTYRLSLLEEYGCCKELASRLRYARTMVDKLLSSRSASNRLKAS

target: Serine/threonine-protein kinase PLK1 (Homo sapiens) (UniProt P53350); experiment: qHTS for Inhibitors of PLK1-PDB (polo-like kinase 1 - polo-box domain): Primary Screen; conditions: Plk1 PBD binding of FITC phosphopeptide, fluorescence polarization; note: nearly all actives have a fitted effect of over 65% in size; for max response, negative = inhibition: series mostly up to about 57 µM
% is set by controls: 0 for no effect and ±100 for the full control effect; potency is the fitted concentration of half-maximal effect.

Row | SMILES | Potency | max response, negative = inhibition
1 | Nc1c(C(=O)O)sc2nc(-c3ccccc3)cc(-c3ccccc3)c12 | inconclusive: 23.8 µM [inhibitor, single point] | –
2 | O=C(CSc1nnc(NC(=O)C2CCC2)s1)NC1CC1 | inconclusive: 29.9 µM [inhibitor, single point] | –
3 | CCOC(=O)c1c(-c2ccc(C)cc2)csc1NC(=O)C1CC=CCC1C(=O)O (stereo not given) | active: 26.7 µM | –
4 | CNc1nc(-c2ccc3c(c2)CCN3C(=O)c2ccccc2C)cs1 | inconclusive: 23.8 µM [inhibitor, partial curve] | –
5 | Cc1nc2cc3nc(C)sc3cc2s1 | active: 29.9 µM | –
6 | NS(=O)(=O)c1cccc(NC(=O)c2cc3ccccc3o2)c1 | active: 21.2 µM | –
7 | CCCC(=O)N1CCc2[nH]c3ccccc3c2C1 | active: 26.7 µM | –
8 | O=C(COC(=O)c1cc(S(=O)(=O)N2CCc3ccccc3C2)ccc1Cl)NCc1ccco1 | inconclusive: 29.9 µM [inhibitor, partial curve] | –
9 | O=[N+]([O-])c1ccc(-[n+]2ccc3ccccc3c2)c([N+](=O)[O-])c1 | active: 23.8 µM | –
10 | CC(C)Nc1ccc(C(CC(N)=O)NC(=O)c2ccccc2)cc1[N+](=O)[O-] (stereo not given) | inconclusive: 29.9 µM [inhibitor, single point] | –
11 | COc1ccc(CCN(C)CCCC(C#N)(c2cc(OC)c(OC)c(OC)c2)C(C)C)cc1OC (stereo not given) | inconclusive: 26.7 µM [inhibitor, single point] | –
12 | CC(Sc1nc2cc([N+](=O)[O-])ccc2n1-c1ccc(F)cc1)C(=O)NCc1ccc2c(c1)OCO2 (stereo not given) | inconclusive: 16.8 µM [inhibitor, partial curve] | –
13 | Cc1c(C(=O)O)cccc1-c1ccc(/C=N/Nc2ccc(Br)cc2)o1 | inconclusive: 23.8 µM [inhibitor, partial curve] | –
14 | CCOC(=O)Cn1c(-c2cccnc2Cl)nc2cc(C)c(C)cc21 | – | inactive: -3.59%
15 | CCc1ccc(/C=C2/C(=O)NC(=O)N2C(C)=O)cc1 | inconclusive: 23.8 µM [inhibitor, partial curve] | –
16 | Cc1ccc(C(=O)NC(=O)OCCn2c(C)cnc2[N+](=O)[O-])cc1 | inconclusive: 26.7 µM [inhibitor, partial curve] | –
17 | Cn1c(SCC(=O)N/N=C/C=C\c2ccco2)nc2ccccc21 | inconclusive: 23.8 µM [inhibitor, single point] | –
18 | Fc1ccccc1Nc1nc(-c2ccncc2)nc2ccccc12 | – | inactive: 0.943%
19 | CC1(C)Cc2ccccc2C(N/N=C/c2cccc(F)c2)=N1 | inconclusive: 21.2 µM [inhibitor, single point] | –
20 | CCC1CCCCN1C(=O)COc1ccc(N(C)S(=O)(=O)c2ccc(C)cc2)cc1 (stereo not given) | – | inactive: -2.91%
21 | O=C(CSCC(=O)OCn1nnc2ccccc2c1=O)Nc1ccc(Cl)cc1 | inconclusive: 26.7 µM [inhibitor, single point] | –
22 | Cc1ccc(NC(=O)c2cc(-c3ccccc3)nn2-c2ccccc2)c(Br)c1 | – | inactive: -1.2%
23 | O=C(Nc1ccc(C(=O)O)cc1)/C(=C\C=C\c1ccccc1)NC(=O)c1ccccc1Br | – | inactive: -8.28%
24 | CNc1[nH]c(=O)[nH]c(=O)c1N=Nc1cc(Cl)ccc1Cl | inconclusive: 33.6 µM [inhibitor, partial curve] | –

Row | SMILES | Potency | max response, negative = inhibition
25 | CC(C)c1ccc(S(=O)(=O)Nc2ccc(N3CCOCC3)cc2)cc1 | – | inactive: 0.545%
26 | CCc1ccccc1NC(=O)CN(C)Cc1c(O)ccc2ccccc12 | active: 11.9 µM | –
27 | C=CC1=C2C=C(C3CC3)N(C3CC3)C=C2C(=O)C(C)(OC(=O)c2ccco2)C1=O (stereo not given) | inconclusive: 37.7 µM [inhibitor, single point] | –
28 | S=C(Nc1ccc(Nc2ccccc2)cc1)NC1CCCCCC1 | inconclusive: 37.7 µM [inhibitor, single point] | –
29 | COc1cc(-c2nc(CN3CCCN(C(=O)c4ccco4)CC3)c(C)o2)ccc1F | active: 29.9 µM | –
30 | CCC(=O)Oc1ccc2c(c1)O/C(=C\c1ccco1)C2=O | inconclusive: 26.7 µM [inhibitor, single point] | –
31 | O=C(c1nn2c(C(F)(F)F)cc(-c3cccs3)nc2c1Br)N1CCCc2ccccc21 | – | inactive: 3.09%
32 | COC(=O)[C@@]12C[C@@H](CC(=O)NCc3ccccc3)C(=O)N(Cc3cccc4ccccc34)C1=CCC(C)(C)C2 | – | inactive: -7.27%
33 | O=C1C=C(NCc2ccccc2)c2ccccc2C1=O | inconclusive: 26.7 µM [inhibitor, partial curve] | –
34 | CC(C)C[C@@H](COc1ccccc1)N1CCN(C)CCC1=O | – | inactive: -0.74%
35 | O=C(c1ccco1)N1CCN(C(=O)c2cccn3c(=O)c4c5c(sc4nc23)CCCC5)CC1 | inconclusive: 21.2 µM [inhibitor, partial curve] | –
36 | COc1ccc(C(=O)Nc2cc(C)nn2-c2ccc(F)cc2)cc1 | – | inactive: -16.9%
37 | Fc1ccccc1CSc1nc2ccccc2[nH]1 | inconclusive: 26.7 µM [inhibitor, single point] | –
38 | CCNc1nc(NCC)nc(N(CC)C(N)=S)n1 | inconclusive: 29.9 µM [inhibitor, partial curve, poor fit] | –
39 | O=c1/c(=C/c2cccc3ccccc23)sc2ncnn12 | – | inconclusive: -31.1% [inhibitor]
40 | CCOc1cc(CNc2ccc(S(N)(=O)=O)cc2)ccc1OCC(=O)NC(C)(C)C | inconclusive: 21.2 µM [inhibitor, partial curve] | –
41 | O=C1C=C(c2cccc3c2sc2ccccc23)C[C@@H](c2ccc(F)cc2)C1 | inconclusive: 26.7 µM [inhibitor, single point] | –
42 | CC(=O)c1ccc(NC(=S)Nc2cccc3ccccc23)cc1 | inconclusive: 21.2 µM [inhibitor, single point] | –
43 | COc1ccc(-c2cc(C(=O)Nc3cc(C)nn3-c3ccccc3)no2)cc1OC | active: 37.7 µM | –
44 | CCOc1ccccc1NC(=S)N1CCN(c2nc(-c3cccc(OC)c3)cs2)CC1 | – | inactive: -13.1%
45 | O=C(OCc1ccc([N+](=O)[O-])cc1)C1CC(=O)N(Cc2ccccc2Cl)C1 (stereo not given) | active: 29.9 µM | –
46 | CCOC(=O)c1[nH]c(C)c(C(=O)/C=C/c2ccc(C(=O)O)cc2)c1C | – | inactive: -4.23%
47 | O=c1nc(SCc2ccc(Cl)cc2)nc(-c2ccccc2)[nH]1 | inconclusive: 29.9 µM [inhibitor, single point] | –
48 | O=C(N/N=C/c1cc(Br)cc([N+](=O)[O-])c1O)c1ccc(NC(=O)c2ccc(F)cc2)cc1 | inconclusive: 23.8 µM [inhibitor, partial curve] | –

Record cards (already shown):
CCOc1ccccc1NC(=S)N1CCN(c2nc(-c3cccc(OC)c3)cs2)CC1 is entered as max response, negative = inhibition: inactive: -13.1%
O=C(CSCC(=O)OCn1nnc2ccccc2c1=O)Nc1ccc(Cl)cc1 is entered as Potency: inconclusive: 26.7 µM [inhibitor, single point]
COc1ccc(-c2cc(C(=O)Nc3cc(C)nn3-c3ccccc3)no2)cc1OC is entered as Potency: active: 37.7 µM
O=[N+]([O-])c1ccc(-[n+]2ccc3ccccc3c2)c([N+](=O)[O-])c1 is entered as Potency: active: 23.8 µM

Later entries:

Row | SMILES | Potency | max response, negative = inhibition
49 | CCOC(=O)CC1=NN(c2ccccc2)C(=O)/C1=C\c1ccc(N(C)C)cc1 | inconclusive: 29.9 µM [inhibitor, partial curve] | –
50 | Cc1nn(Cc2noc(C(=O)NCc3ccc4c(c3)OCO4)n2)c(C)c1Br | inconclusive: 37.7 µM [inhibitor, single point] | –
51 | Cc1ccccc1NC(=O)c1c(C)[nH]c(=S)c(C#N)c1-c1ccco1 | – | inconclusive: -34.9% [inhibitor]
52 | COc1cccc(NC(=O)Nc2ccncc2)c1 | inconclusive: 26.7 µM [inhibitor, partial curve] | –
53 | CCOc1ccc2nc(Cl)c(/C=C/C(=O)c3ccco3)cc2c1 | – | inactive: -6.42%
54 | COc1ccc(S(=O)(=O)N(C)C[C@H]2Oc3c(cccc3N(C)C)C(=O)N([C@H](C)CO)C[C@@H]2C)cc1 | – | inactive: -6.76%
55 | CN(C)CCCN(C(=O)c1ccc(S(=O)(=O)N2CCCCCC2)cc1)c1nc2c(F)cc(F)cc2s1 | – | inactive: 0.626%
56 | CCOC(=O)c1sc(N2C(=O)C(O)=C(C(=O)c3ccc(C)o3)C2c2cccc([N+](=O)[O-])c2)nc1C (stereo not given) | active: 23.8 µM | –
57 | CCOc1cc(/C=N/Nc2ccc(C(=O)O)cc2)ccc1OC(=O)c1ccccc1C | inconclusive: 23.8 µM [inhibitor, partial curve] | –
58 | O=C(c1ccc(Br)cc1)N1CCCc2ccccc21 | inconclusive: 26.7 µM [inhibitor, partial curve] | –
59 | N#Cc1c(/N=C/N2CCOCC2)sc2c1CCCCC2 | active: 21.2 µM | –
60 | C[n+]1c2n(c3ccccc31)N=C(c1ccccc1)CS2 | inconclusive: 23.8 µM [inhibitor, single point] and inconclusive: 37.7 µM [inhibitor, single point] | –
61 | Oc1[nH]c(=S)sc1/C=C1\C(c2ccccc2)=Nc2ccccc21 | – | inactive: -22.2%
62 | O=C(CSc1nnc(Cn2nnc3ccccc32)o1)N(Cc1ccc(Cl)cc1)c1ccccc1 | inconclusive: 29.9 µM [inhibitor, partial curve] | –
63 | CC(C)CN(Cc1cc(=O)oc2cc(-c3ccccc3)c(O)cc12)CC(C)C | active: 29.9 µM | –
64 | COc1ccc(OCC(O)CNC(=O)c2ccc(OC)cc2)cc1 (stereo not given) | inconclusive: 33.6 µM [inhibitor, partial curve] | –
65 | CCOC(=O)N1CCN(C(=O)CSc2nnc(-c3ccc(C(C)(C)C)cc3)o2)CC1 | inconclusive: 29.9 µM [inhibitor, single point] | –
66 | CC1(C)Cc2ccccc2C(COc2ccccc2)=N1 | active: 26.7 µM | –
67 | C#CCOc1c(Cl)cc(/C=C2/C(=O)ON=C2C)cc1OC | active: 4.74 µM | –
68 | COC(=O)c1[nH]c2cc(OC)ccc2c1NC(=O)c1c(F)cccc1F | – | inactive: -4.91%
69 | C=CCn1c(C)cc(-c2csc(N)n2)c1C | inconclusive: 26.7 µM [inhibitor, single point] | –
70 | Cc1cc(=O)oc2c1c(C)nn2-c1ccc(Br)cc1 | inconclusive: 26.7 µM [inhibitor, partial curve] | –
